# Results from the supplement of paper PMC8728848.
# The list shows a part of the results.
# B1: AT3G09350(27) (Arabidopsis thaliana), Q84J81 (protein)
# chain: MAKDGPNWDGLLKWSLSHADGTRPTRQLSEEDRKWFMEAMQSQTVDVVKRMKEITLVMQTPEQVLVEHGVTPEDIQDLLDELQEHVESIDMANDLHSIGGLVPLLSFLKNSHANIRAKAADVVSTIVQNNPRSQELVMETNALESLLSNFTSDTDIHARTQALGAISSLIRHNKPGVTAFKLANGYAGLRDALASDSVRFQRKALNLLQYLLQEDDSDRSIATGLGFPRVMMHLASSDDAEIREAALRGLLELSREKNDGSSSIDKSDEKLRQLLEERIKGITLMSQEDLETVKEERQLVDLLWSICYNEPSSLREKGLVVLPGEDALPPDVASKLFEPPLRASAANRNATEKKDEPMKLLGP
# Legend:
# Assay in all cases: glycan array binding signal (z-score within array); higher = stronger binding
# Settings in all cases: glycan notation: IUPAC condensed, linker removed
# [1] = target: GlcNAc(b1-3)Gal(b1-4)GlcNAc(b1-3)Gal(b1-4)GlcNAc(b1-2)Man(a1-3)[GlcNAc(b1-3)Gal(b1-4)GlcNAc(b1-3)Gal(b1-4)GlcNAc(b1-2)Man(a1-6)]Man(b1-4)GlcNAc(b1-4)GlcNAc
# Procedure, shortened: (§1)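 Glycan array data were curated from 3228 arrays in the Consortium for Functional Glycomics database and kept only where the protein sequence was available. Glycan names were converted to IUPAC-condensed notation, and columns mapping to the same glycan were averaged. The binding signal is a within-array Z-score, averaged across arrays of the same protein sequence at different concentrations or buffers and across linkers. Negative Z-scores can be read as non-binding.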
# [2] = target: GlcNAc(b1-3)Gal(b1-4)GlcNAc(b1-3)Gal(b1-4)GlcNAc(b1-2)Man(a1-3)[GlcNAc(b1-3)Gal(b1-4)GlcNAc(b1-3)Gal(b1-4)GlcNAc(b1-2)Man(a1-6)]Man(b1-4)GlcNAc(b1-4)[Fuc(a1-6)]GlcNAc
# Procedure, shortened: as §1
# [3] = target: GlcNAc(b1-3)Gal(b1-4)GlcNAc(b1-3)Gal(b1-4)GlcNAc(b1-2)[GlcNAc(b1-3)Gal(b1-4)GlcNAc(b1-3)Gal(b1-4)GlcNAc(b1-6)]Man(a1-6)[GlcNAc(b1-3)Gal(b1-4)GlcNAc(b1-3)Gal(b1-4)GlcNAc(b1-2)Man(a1-3)]Man(b1-4)GlcNAc(b1-4)[Fuc(a1-6)]GlcNAc
# Procedure, shortened: as §1
# [4] = target: GlcNAc(b1-3)Gal(b1-4)GlcNAc(b1-3)Gal(b1-4)GlcNAc(b1-3)Gal(b1-4)GlcNAc(b1-2)Man(a1-3)[GlcNAc(b1-3)Gal(b1-4)GlcNAc(b1-3)Gal(b1-4)GlcNAc(b1-3)Gal(b1-4)GlcNAc(b1-2)Man(a1-6)]Man(b1-4)GlcNAc(b1-4)GlcNAc
# Procedure, shortened: as §1
# [5] = target: GlcNAc(b1-3)Gal(b1-4)GlcNAc(b1-3)Gal(b1-4)GlcNAc(b1-3)Gal(b1-4)GlcNAc(b1-2)Man(a1-3)[GlcNAc(b1-3)Gal(b1-4)GlcNAc(b1-3)Gal(b1-4)GlcNAc(b1-3)Gal(b1-4)GlcNAc(b1-2)Man(a1-6)]Man(b1-4)GlcNAc(b1-4)[Fuc(a1-6)]GlcNAc
# Procedure, shortened: as §1
# [6] = target: GlcNAc(b1-3)Gal(b1-4)GlcNAc(b1-3)Gal(b1-4)GlcNAc(b1-3)Gal(b1-4)GlcNAc(b1-2)[GlcNAc(b1-3)Gal(b1-4)GlcNAc(b1-3)Gal(b1-4)GlcNAc(b1-3)Gal(b1-4)GlcNAc(b1-6)]Man(a1-6)[GlcNAc(b1-3)Gal(b1-4)GlcNAc(b1-3)Gal(b1-4)GlcNAc(b1-3)Gal(b1-4)GlcNAc(b1-2)Man(a1-3)]Man(b1-4)GlcNAc(b1-4)[Fuc(a1-6)]GlcNAc
# Procedure, shortened: as §1
# [7] = target: GlcNAc(b1-3)Gal(b1-4)GlcNAc(b1-3)Gal(b1-4)GlcNAc(b1-3)Gal(b1-4)GlcNAc(b1-3)Gal(b1-4)GlcNAc(b1-2)Man(a1-3)[GlcNAc(b1-3)Gal(b1-4)GlcNAc(b1-3)Gal(b1-4)GlcNAc(b1-3)Gal(b1-4)GlcNAc(b1-3)Gal(b1-4)GlcNAc(b1-2)Man(a1-6)]Man(b1-4)GlcNAc(b1-4)GlcNAc
# Procedure, shortened: as §1
# [8] = target: GlcNAc(b1-3)Gal(b1-4)GlcNAc(b1-3)Gal(b1-4)GlcNAc(b1-3)Gal(b1-4)GlcNAc(b1-3)Gal(b1-4)GlcNAc(b1-2)Man(a1-3)[GlcNAc(b1-3)Gal(b1-4)GlcNAc(b1-3)Gal(b1-4)GlcNAc(b1-3)Gal(b1-4)GlcNAc(b1-3)Gal(b1-4)GlcNAc(b1-2)Man(a1-6)]Man(b1-4)GlcNAc(b1-4)[Fuc(a1-6)]GlcNAc
# Procedure, shortened: as §1
# [9] = target: GlcNAc(b1-3)Gal(b1-4)GlcNAc(b1-3)Gal(b1-4)GlcNAc(b1-3)Gal(b1-4)GlcNAc(b1-3)Gal(b1-4)GlcNAc(b1-2)[GlcNAc(b1-3)Gal(b1-4)GlcNAc(b1-3)Gal(b1-4)GlcNAc(b1-3)Gal(b1-4)GlcNAc(b1-3)Gal(b1-4)GlcNAc(b1-6)]Man(a1-6)[GlcNAc(b1-3)Gal(b1-4)GlcNAc(b1-3)Gal(b1-4)GlcNAc(b1-3)Gal(b1-4)GlcNAc(b1-3)Gal(b1-4)GlcNAc(b1-2)Man(a1-3)]Man(b1-4)GlcNAc(b1-4)[Fuc(a1-6)]GlcNAc
# Procedure, shortened: as §1
# [10] = target: GlcNAc(b1-3)Gal(b1-4)GlcNAc(b1-3)Gal(b1-4)GlcNAc(b1-3)GalNAc
# Procedure, shortened: as §1
# [11] = target: GlcNAc(b1-3)Gal(b1-4)GlcNAc(b1-3)GalNAc
# Procedure, shortened: as §1
# [12] = target: GlcNAc(b1-3)Gal(b1-4)GlcNAc(b1-3)[GlcNAc(b1-3)Gal(b1-4)GlcNAc(b1-3)]GalNAc
# Procedure, shortened: as §1
# [13] = target: GlcNAc(b1-3)Gal(b1-4)GlcNAc(b1-6)[Gal(b1-3)]GalNAc
# Procedure, shortened: as §1
# [14] = target: GlcNAc(b1-3)Gal(b1-4)GlcNAc(b1-6)[GlcNAc(b1-3)Gal(b1-3)]GalNAc
# Procedure, shortened: as §1
# [15] = target: GlcNAc(b1-3)Gal(b1-4)GlcNAc(b1-6)[GlcNAc(b1-3)]Gal(b1-4)GlcNAc
# Procedure, shortened: as §1
# GlcNAc(b1-3)GalNAc = target: GlcNAc(b1-3)GalNAc
# Procedure, shortened: as §1
# GlcNAc(b1-3)Man = target: GlcNAc(b1-3)Man
# Procedure, shortened: as §1
# [16] = target: GlcNAc(b1-3)[GlcNAc(b1-4)][GlcNAc(b1-6)]GlcNAc
# Procedure, shortened: as §1
# [17] = target: GlcNAc(b1-3)[GlcNAc(b1-6)]Gal(b1-4)GlcNAc
# Procedure, shortened: as §1
# [18] = target: GlcNAc(b1-3)[GlcNAc(b1-6)]GalNAc
# Procedure, shortened: as §1
# [19] = target: GlcNAc(b1-4)Gal(b1-4)GlcNAc
# Procedure, shortened: as §1
# GlcNAc(b1-4)GlcNAc = target: GlcNAc(b1-4)GlcNAc
# Procedure, shortened: as §1
# [20] = target: GlcNAc(b1-4)GlcNAc(b1-4)GlcNAc
# Procedure, shortened: as §1
binder,measurement,setting,value
B1,glycan array binding signal (z-score),[1],0.28
same,glycan array binding signal (z-score),[2],-0.293
same,glycan array binding signal (z-score),[3],0.509
same,glycan array binding signal (z-score),[4],0.057
same,glycan array binding signal (z-score),[5],0.795
same,glycan array binding signal (z-score),[6],0.561
same,glycan array binding signal (z-score),[7],-0.079
same,glycan array binding signal (z-score),[8],0.853
same,glycan array binding signal (z-score),[9],0.163
same,glycan array binding signal (z-score),[10],0.585
same,glycan array binding signal (z-score),[11],-0.186
same,glycan array binding signal (z-score),[12],-0.037
same,glycan array binding signal (z-score),[13],0.003
same,glycan array binding signal (z-score),[14],-0.666
same,glycan array binding signal (z-score),[15],0.943
same,glycan array binding signal (z-score),GlcNAc(b1-3)GalNAc,0.246
same,glycan array binding signal (z-score),GlcNAc(b1-3)Man,-0.392
same,glycan array binding signal (z-score),[16],-0.064
same,glycan array binding signal (z-score),[17],0.47
same,glycan array binding signal (z-score),[18],0.027
same,glycan array binding signal (z-score),[19],-0.051
same,glycan array binding signal (z-score),GlcNAc(b1-4)GlcNAc,-0.693
same,glycan array binding signal (z-score),[20],-0.893

# Exported bar-delimited: entries from further up
binder | measurement | setting | value
B1 | glycan array binding signal (z-score) | [14] | -0.666
same | glycan array binding signal (z-score) | [15] | 0.943
